Experimental data taken from patent US6372766B1, “Substituted 2-(2′-pyridyloxy)phenylacetamides, as fungicides and pesticides” (priority 1997, dated 2002).
Some results were stated once for a whole list of compounds, not compound by compound.

How the values were obtained:
Plasmopara viticola = assay: Action against Plasmopara viticola on vines (long-term, protective); assay type: in vivo; conditions: 4 ppm; vines "Müller-Thurgau"; inoculated 7 days after spraying; untreated plants 75%
Puccinia recondita = assay: Action against Puccinia recondita on wheat (wheat leaf rust); assay type: in vivo; conditions: 16 ppm; wheat "Frühgold"; sprayed the day after infection; 7 days; untreated plants 75%

| Compound | infection (extent of fungal infection on underside of leaves, visual) (Plasmopara viticola) | infection (extent of rust fungus development on leaves) (Puccinia recondita) |
| --- | --- | --- |
| CNC(=O)/C(=N/OC)c1ccccc1COc1ncc(C(F)(F)F)cc1F [I-1, α-anti-methoxyimino-N-methyl-2-(3-fluoro-5-trifluoromethyl-2-pyridyloxy)methylphenyl-acetamide] | not more than 15% | not more than 15% |
| CNC(=O)/C(=N/OC)c1ccccc1COc1ncc(C(F)(F)F)cc1C [I-2, α-anti-methoxyimino-N-methyl-2-(3-methyl-5-trifluoromethyl-2-pyridyloxy)methyl-phenylacetamide] | not more than 15% | not more than 15% |
